Source: article PMC4170623, “A novel class I HDAC inhibitor, MPT0G030, induces cell apoptosis and differentiation in human colorectal cancer cells via HDAC1/PKCδ and E-cadherin” (Oncotarget, 2014)

Tested on: PC3
Experiment: Sulforhodamine B (SRB) growth inhibition assay
Assay type: cell-based, human
Details: PC3, ± SE
Procedure: Cells were inoculated into 96-well plates in growth medium. After 24 h, cells were fixed with 10% trichloroacetic acid (TCA), to represent a measurement of the cell population at the time of drug addition (Tz). After incubation with vehicle (0.1% DMSO) or different concentrations of compound for 48 h (Tt), cells were fixed with 10% TCA and stained with 0.4% SRB. After staining, unbound SRB was removed by 1% acetic acid. Bound SRB was solubilized with 10 mM trizma base and the absorbance was measured at 515 nm. Percentage of growth inhibition was calculated as: 100−[(Tt-Tz)/(C-Tz)] ×100. Tt represents absorbance of compound-treated group, and C means absorbance of vehicle-treated group.

O=C(CCCCCCC(=O)Nc1ccccc1)NO [SAHA, suberanilohydroxamic acid, reference compound]
GI50: 230 ± 20 nM
